The assay deals with T1, 人2Ig-B7-H3抗原 (Acro, 货号B73-H52E2), His-tag (human) (UniProt Q5ZPR3).
T1 sequence (looked up): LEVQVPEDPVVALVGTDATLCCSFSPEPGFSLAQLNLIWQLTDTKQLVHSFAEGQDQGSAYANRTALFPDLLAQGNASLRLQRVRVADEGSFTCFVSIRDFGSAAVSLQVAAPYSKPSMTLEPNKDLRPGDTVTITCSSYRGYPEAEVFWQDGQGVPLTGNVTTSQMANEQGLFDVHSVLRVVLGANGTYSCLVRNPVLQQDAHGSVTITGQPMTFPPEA
Kind of assay: ELISA, antigen coated at 1 μg/mL. (In general: In an ELISA, binding on a coated surface is turned into a signal by an enzyme label.)

No constants are given. Whether binding was seen depends on the method and setting. Some entries that bind do so weakly or less than the wild type. Sequences can lack the tags named with a protein.

B1: 单克隆抗体27B4 (mouse monoclonal antibody from hybridoma 27B4) (antibody, V domains shown)
VH: QVQLQQSGAELARPGASVKLSCKASGYTFTTYWMQWIQQRPGQGLEWIGAIYPGDGGSRYTQRFKGKATMTADPSSSTVYMQLTSLASEDSAVYFCARGGNYISFPMYYWGQGTSVTVSP
VL: DIVMTQSHKFMSTSVGDRVSITCKASRGVSTAVAWYQQKPGQSPKLLIYWASTRHTGVPDRFTGSGSGTDYTLTISSVQAEDLALYYCQQHYDTPYTFGGGTKLEIQ
Consider B1, for which the binding result was “binds”.

B2: h27B4-H4-L3 (antibody, human IgG1, kappa, V domains shown)
VH: EVQLVQSGAEVKKPGESLKISCKASGYTFTTYWIGWVRQMPGKGLEWMGIIYPGDGGSRYSPSFQGQVTISADKSISTAYLQWSSLKASDTAMYYCARGGNYISFPMYYWGQGTLVTVSS
VL: EIVMTQSPATLSVSPGERATLSCKASRGVSTALAWYQQKPGQAPRLLIYWASTRATGIPARFSGSGSGTEFTLTISSLQSEDFAVYYCQQHYDTPYTFGQGTKLEIKR
As for B2, the binding entry is on record as “binds”.

For the origin of these results see CN113683697A.
